The record followed here is PMC4605302.

No constants are given. Whether binding was seen depends on the method and setting. Binding seen in cells or lysates may run through a third protein. A yes stands for co-enrichment or nearness to the bait. Other partners may have been found.

The target of this assay is T1, Dpb2-TAP (S. cerevisiae) (UniProt P24482).
T1 sequence: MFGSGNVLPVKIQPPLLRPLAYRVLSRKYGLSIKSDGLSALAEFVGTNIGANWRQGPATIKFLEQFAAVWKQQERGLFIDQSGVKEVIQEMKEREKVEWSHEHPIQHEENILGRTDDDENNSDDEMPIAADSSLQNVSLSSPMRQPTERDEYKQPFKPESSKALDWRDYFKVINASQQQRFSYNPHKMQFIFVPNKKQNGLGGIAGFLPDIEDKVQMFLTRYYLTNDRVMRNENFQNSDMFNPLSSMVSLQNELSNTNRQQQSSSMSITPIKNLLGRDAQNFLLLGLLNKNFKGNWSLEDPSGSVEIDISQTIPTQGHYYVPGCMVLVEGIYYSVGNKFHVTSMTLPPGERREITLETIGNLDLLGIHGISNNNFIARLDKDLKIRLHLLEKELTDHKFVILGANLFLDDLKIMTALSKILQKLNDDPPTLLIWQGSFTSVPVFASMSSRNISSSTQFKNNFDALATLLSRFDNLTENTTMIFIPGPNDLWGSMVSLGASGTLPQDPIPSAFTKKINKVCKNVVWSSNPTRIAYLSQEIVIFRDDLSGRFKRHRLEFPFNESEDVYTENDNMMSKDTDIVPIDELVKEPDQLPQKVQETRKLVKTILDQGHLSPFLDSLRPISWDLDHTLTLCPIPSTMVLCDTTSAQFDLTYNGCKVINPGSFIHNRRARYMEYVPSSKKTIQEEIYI
The experiment in a line: affinity purification with mass spectrometry; TAP-tagged proteins purified from 4 l yeast cultures; gel bands digested with trypsin, nano-LC tandem mass spectrometry.

B1: Ctf8 (protein, UniProt P38877 1-133)
chain: MPSVDIDASQWQKLTQSREKQTTVITPLGMMMLEIQGELELPKDFASLARRDSPNEGRFSEQDGETLIRFGSLQIDGERATLFVGKKQRLLGKVTKLDVPMGIMHFNSKDNKVELVDVMKYKVIFKDRPLPIM
As to B1, the binding result is recorded as “binds”.

B2: Dcc1 (protein, UniProt P25559 1-380)
chain: MSINLHSAPEYDPSYKLIQLTPELLDIIQDPVQNHQLRFKSLDKDKSEVVLCSHDKTWVLKQRKHSNTVLLMREFVPEQPITFDETLLFGLSKPYMDVVGFAKTESEFETRETHGELNLNSVPIYNGELDFSDKIMKRSSTKVIGTLEELLENSPCSALEGISKWHKIGGSVKDGVLCILSQDFLFKALHVLLMSAMAESLDLQHLNVEDTHHAVGKDIEDEFNPYTREIIETVLNKFAVQEQEAENNTWRLRIPFIAQWYGIQALRKYVSGISMPIDEFLIKWKSLFPPFFPCDIDIDMLRGYHFKPTDKTVQYIAKSTLPMDPKERFKVLFRLQSQWDLEDIKPLIEELNSRGMKIDSFIMKYARRKRLGKKTVVTSR
As to B2, the binding result is listed as “binds”.
